Measured values reported in paper PMC4192540, “Targeted In Vivo Inhibition of Specific Protein–Protein Interactions Using Recombinant Antibodies” (PLoS ONE, 2014).

Sequences of proteins named here, by UniProt entry; tags and fusion partners are left off. A change or cut given only in a name is not applied to a line headed by its entry.
UniProt Q9C5U0: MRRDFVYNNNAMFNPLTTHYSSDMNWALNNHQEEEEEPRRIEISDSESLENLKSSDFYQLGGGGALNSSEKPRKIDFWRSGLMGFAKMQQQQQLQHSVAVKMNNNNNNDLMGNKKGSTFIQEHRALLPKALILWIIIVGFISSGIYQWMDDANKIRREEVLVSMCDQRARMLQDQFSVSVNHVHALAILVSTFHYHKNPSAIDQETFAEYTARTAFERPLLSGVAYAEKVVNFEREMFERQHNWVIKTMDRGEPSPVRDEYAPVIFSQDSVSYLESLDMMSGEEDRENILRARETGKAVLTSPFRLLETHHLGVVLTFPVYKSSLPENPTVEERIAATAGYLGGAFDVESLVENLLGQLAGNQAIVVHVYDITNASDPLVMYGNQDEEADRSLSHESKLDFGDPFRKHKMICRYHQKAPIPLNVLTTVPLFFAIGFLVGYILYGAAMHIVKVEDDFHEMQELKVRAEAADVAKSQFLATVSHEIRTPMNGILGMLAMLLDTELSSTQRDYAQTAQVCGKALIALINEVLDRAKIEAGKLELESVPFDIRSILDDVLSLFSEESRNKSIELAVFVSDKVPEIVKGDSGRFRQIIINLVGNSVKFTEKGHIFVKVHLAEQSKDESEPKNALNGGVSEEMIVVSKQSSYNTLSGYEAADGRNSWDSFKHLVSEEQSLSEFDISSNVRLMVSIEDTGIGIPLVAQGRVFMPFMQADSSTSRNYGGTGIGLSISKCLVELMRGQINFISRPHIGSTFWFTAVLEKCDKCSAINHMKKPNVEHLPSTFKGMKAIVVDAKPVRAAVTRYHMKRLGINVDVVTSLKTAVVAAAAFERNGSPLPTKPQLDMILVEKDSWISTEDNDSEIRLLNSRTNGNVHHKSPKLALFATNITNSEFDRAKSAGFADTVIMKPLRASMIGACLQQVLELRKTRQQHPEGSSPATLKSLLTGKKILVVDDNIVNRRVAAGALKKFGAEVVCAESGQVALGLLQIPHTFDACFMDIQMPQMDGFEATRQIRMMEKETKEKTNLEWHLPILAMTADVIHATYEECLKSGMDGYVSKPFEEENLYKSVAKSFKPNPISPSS

Molecular target: AHK4 (A. thaliana) (UniProt Q9C5U0)
Experiment: two-hybrid; yeast three-hybrid: receiver domain as Gal4 BD fusion, AHP proteins as Gal4 AD fusions, scFv hB7A expressed ectopically from pY3HS or empty pY3HS; S. cerevisiae PJ69-4A; media lacking Leu, Trp, Ura and His or Ade, or with 1 mM 3-Amino-1,2,4-triazole

binding: binds
B1: ARABIDOPSIS … PHOSPHOTRANSFER PROTEIN 3, Gal4 activation domain fusion (protein, UniProt Q9SAZ5 1-155)
chain: MDTLIAQLQRRFCDFTISLYHQGFLDDQFTELKKLQDECSPDFVAEVVTLFFEDCEKLISNMARALDQTGNVDFKLVGSSVHQLKGSSSSVGAKRVKGLCVTLKECCDSQNYEGCVRCLQQVDIEYKTLKAKLQDLFNLEQQIVQAGGRIPQVDI

These are yes or no findings as the source states them, for the method shown. A result given as binding can be weak or reduced; the word gives no strength. Tags and fused reporters may be left off the sequences shown.
